This note sets out measurements from paper PMC11290141.

For at least one entry, the source does not settle the construct or the ends of the probe. At least one verdict rests on a figure or table, not on a statement of the authors.

For the data set, the system named is GST-TaSPL7A (Triticum aestivum). In words: EMSA. Particulars: LightShift Chemiluminescent EMSA Kit (Thermo 20148), 1 ug GST-TaSPL7A, room temperature, 20 min, native PAGE; salt and pH not stated; recombinant protein; protein details: GST; label: 5' biotin.
With “AAAATCCGGAGATTCGCACGTACGATCGTTCGACACGTCGACGCCCGG (double strand) [P1-1 (VRN1 promoter)]”, the binding result is “binds”.

Regarding “AGCGGTTCAGACTGGTACACACACACGGTACGCGAACGAGAGCGACAC (double strand) [P4]”, the binding result is recorded as “binds”. The entry for “AGTAGTACTGTAGTAATAAATCGCCCGTAGGAGTACCACTGGTAATGTG (double strand) [P5]” is “binds”. As for “CCCTTCTTCTAGGCCTAGGGTACAGTAGAATATTATGAAAGGAAAAAT (double strand) [P1-2 (VRN1 promoter)]”, the entry is “binds”; as for “TCAGCGGAAATACTCTCTCGTACGTGTGTGGAGGCAAATCCAACTTC (double strand) [P3]”, “binds”.
